Source: PubChem BioAssay AID686943 (Drosophila RNAi Screening Center, 2013)
The screen tested about 23,000 reagents; shown is a random part of those that have a named target and a result. 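Extra replicates exist only for a retested subset of genes; insulin dose and duration not given; both raised and lowered dpERK matter.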 Not stated in the record: the amount of reagent, the time to read-out.

- Aim: 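Knockdowns that increase or decrease active ERK after insulin receptor stimulation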 (primary screen)
- System: Drosophila S2R+ haemocyte-like cells expressing YFP-tagged ERK (Rolled)
- Knock-down reagent: long dsRNA against Drosophila genes
- Challenge: insulin stimulation versus unstimulated cells; dose and duration not given
- Measurement: 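Per-plate z-scores of phospho-ERK immunostaining normalised to YFP-tagged ERK, measured with and without insulin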
- Direction: replicate 1, z-score of dpERK with insulin and replicate 2, z-score of dpERK with insulin: higher = more active ERK per ERK-YFP after insulin; replicate 1, z-score of dpERK under basal conditions: higher = more basal active ERK per ERK-YFP; replicate 1, z-score of ERK-YFP with insulin: higher = more YFP-tagged ERK signal

no.	gene	PubChem SID	replicate 1, z-score of dpERK with insulin	replicate 2, z-score of dpERK with insulin	replicate 1, z-score of dpERK under basal conditions	replicate 1, z-score of ERK-YFP with insulin
1	RpL23A	SID104188486	-1.21	-1.67	-3.37	-1.76
2	RpL23A	SID104201619	0.21	0.13	-0.12	-0.92
3	MYPT-75D	SID104190535	0.44	0.11	-0.29	0.3
4	ds	SID104180607	-0.55	-0.14	0.26	0.34
5	SoxN	SID104183232	0.18	0.08	2.66	-0.95
6	SoxN	SID104201440	0.5	0.02	1.4	-3.21
7	CG9331	SID104182998	-0.24	-0.03	0.41	1.28
8	CG41020 (retired record)	SID104200658	0.16	-1.34	0.15	1.52
9	CG1598	SID104186390	-0.9	0.71	-0.63	0.72
10	dpr14	SID104197559	1.01	0.53	-0.23	0.33
11	CG6959	SID104195943	0.56	0.74	-0.49	0.13
12	Ype	SID104200093	-0.61	-0.94	0.01	-0.02
13	Or2a	SID104198482	0.88	0	0.84	0.05
14	Dtd	SID104195154	0.16	0.36	-0.21	-0.03
15	PGRP-SC2	SID104186273	0.45	0.67	0.24	0
16	mTerf5	SID104196001	0.93	0.65	-0.16	0.96
17	pr	SID104183388	1.01	1.13	0.44	0.1
18	CG17036	SID104182356	-0.17	0.02	-1.79	0.61
19	CG43312	SID104191351	0.14	0.45	0.15	0.18
20	Ir60d	SID104184010	0.58	-0.41	1.17	-0.71
21	CG8578	SID104199906	0.53	0.39	-0.42	-0.35
22	CG5188	SID104182618	-0.06	0.31	0.25	-0.99
23	ox	SID104187312	-1.13	0.06	-1.18	1.94
24	Gr93c	SID104194379	0.49	0.34	0.02	-0.2
25	CG12995	SID104199307	-0.81	-0.74	1.41	0.97
26	mi	SID104184290	-2.13	-1.4	-0.07	-2.77
27	Spn88Eb	SID104195885	-0.14	-0.3	2	0.52
28	CG17002	SID104184770	-0.09	0.06	-0.74	0.41
29	SmE	SID104182472	0.84	0.25	-1.76	-0.84
30	ATPsynCF6L	SID104188024	0.72	0.51	2.87	-0.85
31	CG42288	SID104186173	0.34	1.09	1.16	0.7
32	CG13310	SID104189773	-0.56	-1.11	-0.83	0.63
33	ey	SID104196965	0.42	0.15	-0.05	-0.01
34	t	SID104197607	-0.2	0.26	-0.68	0.32
35	RnpS1	SID104194946	1.67	0.94	1.31	0.12
36	CarT	SID104182988	0.19	-0.79	0.21	1.36
37	B-H1	SID104199126	-3.84	0.76	-0.26	-1.34
38	B-H1	SID104201545	0.42	0.34	-0.52	-0.14
39	Rnb	SID104196117	-1.07	-0.28	0.85	1.62
